PubChem BioAssay AID1259261 – Sanger Institute, 2017

Test: 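Kinase knock-downs that kill colorectal cancer cells or boost targeted drugs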 (primary screen)
Cell system: HCC2998 human colorectal cancer cells
Reagent: siRNA pool against human genes
Treatment: anchor drugs BYL719 1 µM, cetuximab 5 µg/ml or trametinib 10 nM, each compared with DMSO vehicle
Detection: 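Cell viability relative to non-targeting siRNA, averaged over replicates, with robust z-score for siRNA alone and synergy scores with each anchor drug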
Reading the numbers: viability z-score, knock-down alone: higher = more viable cells than controls
Rule for the call: 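a knock-down is called essential if its robust z-score without drug is under -3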
Calls: active = essential; inactive = no change
The whole screen tested 794 reagents; below is an unselected part. 10 of all reagents (1.3%) count as active. 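Calls reflect knock-down alone without drug; synergy scores with BYL719, cetuximab or trametinib do not affect calls.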 A number with no mark means an inactive call. Further read-outs or replicates are left out here. Not given: the amount of reagent, the time to read-out.

EIF2AK1 (eukaryotic translation initiation factor 2 alpha kinase 1) gave viability z-score, knock-down alone -0.0545.
Depletion of PIK3R4 (phosphoinositide-3-kinase regulatory subunit 4) came out at: viability z-score, knock-down alone -0.264.
For SIK3 (SIK family kinase 3), the entry reads viability z-score, knock-down alone 0.995.
Against ERBB2 (erb-b2 receptor tyrosine kinase 2), the entry reads viability z-score, knock-down alone 0.966.
For CSK (C-terminal Src kinase), the entry reads viability z-score, knock-down alone 1.21.
TWF1 (twinfilin actin binding protein 1) gave viability z-score, knock-down alone 0.691.
With knock-down of MAP2K4 (mitogen-activated protein kinase kinase 4) the results were viability z-score, knock-down alone -0.363.
Depletion of POLR2B (RNA polymerase II subunit B) came out at: viability z-score, knock-down alone -2.94.
Knock-down of PFKFB1 (6-phosphofructo-2-kinase/fructose-2,6-biphosphatase 1) resulted in: viability z-score, knock-down alone -1.35.
Against NEK11 (NIMA related kinase 11), the entry reads viability z-score, knock-down alone -0.739.
Depletion of PDK2 (pyruvate dehydrogenase kinase 2) resulted in: viability z-score, knock-down alone 0.0428.
After knock-down of WNK1 (WNK lysine deficient protein kinase 1), the screen gave viability z-score, knock-down alone -0.715.
With knock-down of MELK (maternal embryonic leucine zipper kinase), the screen gave viability z-score, knock-down alone 0.247.
Knock-down of PXK (PX domain containing serine/threonine kinase like) came out at: viability z-score, knock-down alone 0.0428.
Depletion of SRPK3 (SRSF protein kinase 3) gave: viability z-score, knock-down alone 1.21.
Knock-down of GK (glycerol kinase) gave: viability z-score, knock-down alone 0.349.
Knock-down of EPHA3 (EPH receptor A3) came out at: viability z-score, knock-down alone 0.0517.
Knock-down of PMVK (phosphomevalonate kinase) gave: viability z-score, knock-down alone 0.651.
Silencing of MAK (male germ cell associated kinase) gave: viability z-score, knock-down alone 0.497.
For MYLK2 (myosin light chain kinase 2), the entry reads viability z-score, knock-down alone -1.63.
ABL1 (ABL proto-oncogene 1, non-receptor tyrosine kinase) gave viability z-score, knock-down alone 0.86.
For MAGI2, the values are viability z-score, knock-down alone 1.17.
For CERT1 (ceramide transporter 1), the entry reads viability z-score, knock-down alone 0.556.
For FN3KRP (fructosamine 3 kinase related protein), the entry reads viability z-score, knock-down alone -0.327.
FRK (fyn related Src family tyrosine kinase) scored viability z-score, knock-down alone 0.678.
Against PIP4K2C (phosphatidylinositol-5-phosphate 4-kinase type 2 gamma) the deposit lists viability z-score, knock-down alone -0.725.
EFNA4 (ephrin A4) showed viability z-score, knock-down alone 0.206.
Knock-down of NEK3 (NIMA related kinase 3) resulted in: viability z-score, knock-down alone 0.578.
For STK38L (serine/threonine kinase 38 like), the entry reads viability z-score, knock-down alone 0.764.
PKDCC (protein kinase domain containing, cytoplasmic) gave viability z-score, knock-down alone 0.842.
Against CALM2 (calmodulin 2) the deposit lists viability z-score, knock-down alone -0.182.
Silencing of CDK2 (cyclin dependent kinase 2) resulted in: viability z-score, knock-down alone 0.567.
After knock-down of NAGK (N-acetylglucosamine kinase), the screen gave viability z-score, knock-down alone -1.56.
Knock-down of FGFR4 (fibroblast growth factor receptor 4) came out at: viability z-score, knock-down alone 0.434.
After knock-down of PRPS1 (phosphoribosyl pyrophosphate synthetase 1), the screen gave viability z-score, knock-down alone -0.618.
Knock-down of MLKL (mixed lineage kinase domain like pseudokinase) resulted in: viability z-score, knock-down alone 0.841.

Already shown: entries from further up.
FN3KRP (fructosamine 3 kinase related protein) | viability z-score, knock-down alone = -0.327
FRK (fyn related Src family tyrosine kinase) | viability z-score, knock-down alone = 0.678
PIP4K2C (phosphatidylinositol-5-phosphate 4-kinase type 2 gamma) | viability z-score, knock-down alone = -0.725
